Reference: publication PMC11005711
These are yes or no findings as the source states them, for the method shown. Binding seen in cells or lysates may run through a third protein. Some results given as binding are weak or reduced against the parent protein; the word gives no strength. For part of these data: Sequences can lack the tags named with a protein.

Amino acid sequences for entries named in this document (tags omitted).
UniProt P11142: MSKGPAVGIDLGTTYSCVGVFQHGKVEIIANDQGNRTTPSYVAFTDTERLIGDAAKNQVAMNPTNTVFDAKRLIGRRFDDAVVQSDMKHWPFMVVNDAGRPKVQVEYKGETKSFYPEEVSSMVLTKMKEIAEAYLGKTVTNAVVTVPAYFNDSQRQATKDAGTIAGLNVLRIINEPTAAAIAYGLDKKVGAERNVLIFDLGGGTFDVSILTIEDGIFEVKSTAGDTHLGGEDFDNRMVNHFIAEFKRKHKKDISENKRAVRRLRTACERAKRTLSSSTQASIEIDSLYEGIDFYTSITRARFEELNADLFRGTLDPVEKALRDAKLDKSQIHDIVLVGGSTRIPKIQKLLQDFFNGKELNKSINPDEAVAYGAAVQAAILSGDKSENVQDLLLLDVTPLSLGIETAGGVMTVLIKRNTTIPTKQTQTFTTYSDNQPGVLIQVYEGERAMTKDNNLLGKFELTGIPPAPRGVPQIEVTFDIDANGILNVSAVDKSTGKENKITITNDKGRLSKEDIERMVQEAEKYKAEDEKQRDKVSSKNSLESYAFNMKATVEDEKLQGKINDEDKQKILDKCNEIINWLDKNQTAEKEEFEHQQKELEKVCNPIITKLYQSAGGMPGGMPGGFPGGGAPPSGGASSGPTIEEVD

Legend:
[1] = target: T1, Flag-Mfn2 with deletion of amino acids 649–693 (UniProt Q80U63); test: co-IP; 293T cells transfected with wild-type Flag-Mfn2 or its deletion mutants, immunoprecipitation
T1 sequence: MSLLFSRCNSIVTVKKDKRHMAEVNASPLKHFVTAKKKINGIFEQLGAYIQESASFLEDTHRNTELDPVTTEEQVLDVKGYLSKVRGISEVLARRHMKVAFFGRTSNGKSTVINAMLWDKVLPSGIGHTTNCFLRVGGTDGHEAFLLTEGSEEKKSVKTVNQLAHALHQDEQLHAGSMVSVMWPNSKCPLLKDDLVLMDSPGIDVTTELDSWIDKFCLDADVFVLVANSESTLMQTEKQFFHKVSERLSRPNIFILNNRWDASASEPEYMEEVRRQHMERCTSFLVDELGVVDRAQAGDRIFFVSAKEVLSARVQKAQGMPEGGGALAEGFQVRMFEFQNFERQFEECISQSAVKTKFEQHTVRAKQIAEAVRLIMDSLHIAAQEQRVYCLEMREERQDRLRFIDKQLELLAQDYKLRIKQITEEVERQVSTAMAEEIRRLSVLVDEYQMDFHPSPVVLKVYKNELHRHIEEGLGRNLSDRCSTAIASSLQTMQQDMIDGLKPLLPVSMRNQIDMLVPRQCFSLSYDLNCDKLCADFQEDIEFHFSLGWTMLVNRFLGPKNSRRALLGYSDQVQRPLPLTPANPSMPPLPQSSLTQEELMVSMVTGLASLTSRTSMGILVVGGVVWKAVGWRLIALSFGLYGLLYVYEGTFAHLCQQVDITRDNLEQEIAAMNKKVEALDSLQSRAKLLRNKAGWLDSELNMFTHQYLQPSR

Flag-Mfn2, wild type = target: T2, Flag-Mfn2, wild type (UniProt Q80U63); test: as above
T2 sequence: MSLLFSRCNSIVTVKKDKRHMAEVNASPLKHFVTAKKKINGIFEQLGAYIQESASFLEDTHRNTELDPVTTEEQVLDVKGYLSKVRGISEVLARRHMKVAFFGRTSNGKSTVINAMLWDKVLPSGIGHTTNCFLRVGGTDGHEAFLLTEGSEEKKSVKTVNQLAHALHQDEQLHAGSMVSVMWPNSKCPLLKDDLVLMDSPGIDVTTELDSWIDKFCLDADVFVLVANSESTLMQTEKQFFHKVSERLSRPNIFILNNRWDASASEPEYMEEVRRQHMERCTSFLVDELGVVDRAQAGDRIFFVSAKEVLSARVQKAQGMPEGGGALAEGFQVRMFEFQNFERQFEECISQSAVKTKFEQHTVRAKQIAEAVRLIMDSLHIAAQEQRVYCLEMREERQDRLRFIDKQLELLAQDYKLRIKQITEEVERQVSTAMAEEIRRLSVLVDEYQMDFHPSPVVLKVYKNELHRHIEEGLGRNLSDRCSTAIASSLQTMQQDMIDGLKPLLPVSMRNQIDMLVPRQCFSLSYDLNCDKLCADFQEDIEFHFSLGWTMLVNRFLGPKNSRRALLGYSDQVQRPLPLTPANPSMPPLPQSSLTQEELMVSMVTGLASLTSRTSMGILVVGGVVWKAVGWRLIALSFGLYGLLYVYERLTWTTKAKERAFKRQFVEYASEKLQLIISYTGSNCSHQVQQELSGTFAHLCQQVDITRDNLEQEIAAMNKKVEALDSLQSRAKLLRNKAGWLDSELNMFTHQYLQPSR

[2] = target: T3, Mfn2, endogenous in human atrial tissue (human (endogenous in human atrial tissue)) (UniProt O95140); test: co-IP; IP assay in human atrial tissue from obese and non-obese individuals
T3 sequence: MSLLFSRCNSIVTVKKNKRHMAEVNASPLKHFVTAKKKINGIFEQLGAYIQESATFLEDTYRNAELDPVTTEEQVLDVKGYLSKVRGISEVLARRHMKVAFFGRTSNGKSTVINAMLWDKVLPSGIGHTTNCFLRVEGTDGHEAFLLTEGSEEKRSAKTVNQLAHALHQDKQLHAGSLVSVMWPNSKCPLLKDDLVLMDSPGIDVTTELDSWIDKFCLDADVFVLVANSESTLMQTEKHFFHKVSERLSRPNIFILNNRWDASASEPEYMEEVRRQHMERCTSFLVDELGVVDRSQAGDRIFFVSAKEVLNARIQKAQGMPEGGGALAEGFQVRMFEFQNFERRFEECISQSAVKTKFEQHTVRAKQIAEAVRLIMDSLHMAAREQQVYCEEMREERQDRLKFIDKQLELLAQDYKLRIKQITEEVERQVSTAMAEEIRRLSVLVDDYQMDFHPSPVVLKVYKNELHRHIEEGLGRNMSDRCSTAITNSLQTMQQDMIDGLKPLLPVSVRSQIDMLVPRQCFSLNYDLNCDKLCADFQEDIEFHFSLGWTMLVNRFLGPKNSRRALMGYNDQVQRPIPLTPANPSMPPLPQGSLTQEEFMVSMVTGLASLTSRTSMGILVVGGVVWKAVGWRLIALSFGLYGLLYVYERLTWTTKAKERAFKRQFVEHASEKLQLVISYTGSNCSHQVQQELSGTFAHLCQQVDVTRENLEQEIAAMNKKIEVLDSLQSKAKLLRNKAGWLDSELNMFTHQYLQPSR

binding [1] | binding (Flag-Mfn2, wild type) | binding [2] | Substance
no binding | binds |  | Hsc70 in 293T cells (from UniProt P11142 1-646)
 |  | binds | Hsc70, endogenous in human atrial tissue (from UniProt P11142 1-646)
